From PMC8027631
No constants are given. Whether binding was seen depends on the method and setting. In cells and extracts the contact can be indirect. Some binding calls cover weakened binding; strength is not graded here.

Protein sequences, listed by entry. Tags and fused reporters are not part of them. Residues count along the entry.
UniProt Q14974: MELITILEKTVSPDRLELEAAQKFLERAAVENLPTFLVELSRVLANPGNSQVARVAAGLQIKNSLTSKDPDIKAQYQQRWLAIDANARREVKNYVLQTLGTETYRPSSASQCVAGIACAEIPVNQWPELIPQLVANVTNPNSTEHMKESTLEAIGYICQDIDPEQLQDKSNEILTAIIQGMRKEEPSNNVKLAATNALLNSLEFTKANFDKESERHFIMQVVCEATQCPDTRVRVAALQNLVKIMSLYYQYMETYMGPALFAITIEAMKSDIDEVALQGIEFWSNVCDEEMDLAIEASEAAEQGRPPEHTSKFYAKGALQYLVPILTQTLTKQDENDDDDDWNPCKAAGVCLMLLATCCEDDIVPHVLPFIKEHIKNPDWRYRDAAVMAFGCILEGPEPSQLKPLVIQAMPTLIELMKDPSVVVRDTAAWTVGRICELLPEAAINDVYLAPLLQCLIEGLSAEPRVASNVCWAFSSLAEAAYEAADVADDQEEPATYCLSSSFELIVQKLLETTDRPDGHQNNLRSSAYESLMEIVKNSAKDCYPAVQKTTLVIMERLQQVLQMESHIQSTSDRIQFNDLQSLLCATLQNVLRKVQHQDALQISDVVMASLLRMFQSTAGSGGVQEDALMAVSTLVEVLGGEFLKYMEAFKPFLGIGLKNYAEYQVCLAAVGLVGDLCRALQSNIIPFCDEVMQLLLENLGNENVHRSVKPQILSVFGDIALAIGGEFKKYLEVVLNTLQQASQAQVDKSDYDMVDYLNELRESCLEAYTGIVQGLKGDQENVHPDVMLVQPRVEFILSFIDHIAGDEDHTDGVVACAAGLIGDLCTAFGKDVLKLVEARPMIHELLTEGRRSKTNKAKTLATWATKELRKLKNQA
UniProt Q9NZQ7, residues 19-290: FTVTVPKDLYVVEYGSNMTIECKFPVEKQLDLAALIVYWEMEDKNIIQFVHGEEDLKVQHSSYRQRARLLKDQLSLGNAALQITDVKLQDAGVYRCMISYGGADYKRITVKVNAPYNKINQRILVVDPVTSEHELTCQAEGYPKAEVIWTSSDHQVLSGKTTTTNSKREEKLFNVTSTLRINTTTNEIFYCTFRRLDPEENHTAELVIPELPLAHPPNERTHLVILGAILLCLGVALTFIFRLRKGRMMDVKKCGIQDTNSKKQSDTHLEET

Experiments:
myc-tagged KPNB1 = myc-tagged KPNB1 (UniProt Q14974); experiment: co-IP; myc-tagged KPNB1 and Flag-tagged PD-L1 co-expressed in HEK 293T cells (legend: HEK293T and Hela); KPNB1 immunoprecipitates blotted for PD-L1
[1] = molecular target: programmed cell death ligand 1 (PD-L1), endogenous (human (endogenous in H1299 and HCC827)) (UniProt Q9NZQ7); experiment: co-IP; endogenous proteins in H1299 and HCC827 lysates; anti-KPNB1 and anti-PD-L1 antibodies or normal IgG at 4 °C overnight, protein A/G beads, western blot

| Substance | binding (myc-tagged KPNB1) | binding [1] |
| --- | --- | --- |
| Flag-tagged PD-L1 (programmed cell death ligand 1) (from UniProt Q9NZQ7 19-290) | binds |  |
| Karyopherin β1 (KPNB1), endogenous (from UniProt Q14974 1-876) |  | binds |
